Results deposited as PubChem BioAssay AID1259308 (NCATS, 2017)
Assay: 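Candidate targets for better recombinant protein yield in mammalian cells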 (primary screen). Cells: human HEK293 embryonic kidney cells stably expressing firefly luciferase (HEK-CMV-Luc2-Hygro). Knock-down reagent: single siRNA against human genes, 0.8 pmol siRNA per well. Time to read-out: 72 h. Read-out: 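Luciferase light (ONE-Glo) measured on one replicate plate set and viability (CellTiter-Glo) on the other, scaled to a negative control siRNA, with robust z-scores and luciferase per cell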. Reading the numbers: total luciferase, z-score and total luciferase, % of control: higher = more reporter protein produced. Hit rule: 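An siRNA counts as active if its total luciferase robust z-score exceeds 3; genes with two or more such siRNAs out of three were retested with fresh siRNAs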. Calls: active = raised luciferase; inactive = no rise.
The deposit covers about 59,000 reagents; shown is a random part of them. Of all reagents, about 1,510 (2.6%) are marked active. 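Calls use total luciferase alone and ignore viability, so some active siRNAs may act by altering cell number.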 Reagents against one gene are numbered here. Not all columns of the deposit are shown. Reagent sequences are not shown.

PRKCQ-AS1 #1
- total luciferase, z-score: -0.142
- total luciferase, % of control: 79.1
- activity call: inactive

PRKCQ-AS1 #2
- total luciferase, z-score: -0.984
- total luciferase, % of control: 62.3
- activity call: inactive

PRKCQ-AS1 #3
- total luciferase, z-score: -0.112
- total luciferase, % of control: 79.7
- activity call: inactive

SOCS3 #1
- total luciferase, z-score: -1.08
- total luciferase, % of control: 60.5
- activity call: inactive

SOCS3 #2
- total luciferase, z-score: 1.2
- total luciferase, % of control: 106
- activity call: inactive

SOCS3 #3
- total luciferase, z-score: -0.961
- total luciferase, % of control: 62.8
- activity call: inactive

PGS1 #1
- total luciferase, z-score: 0.0361
- total luciferase, % of control: 82.6
- activity call: inactive

PGS1 #2
- total luciferase, z-score: -0.149
- total luciferase, % of control: 78.9
- activity call: inactive

PGS1 #3
- total luciferase, z-score: -0.132
- total luciferase, % of control: 79.3
- activity call: inactive

ARHGAP28 #1
- total luciferase, z-score: 2.46
- total luciferase, % of control: 131
- activity call: inactive

ARHGAP28 #2
- total luciferase, z-score: -0.962
- total luciferase, % of control: 62.7
- activity call: inactive

ARHGAP28 #3
- total luciferase, z-score: -1.18
- total luciferase, % of control: 58.5
- activity call: inactive

USP26 #1
- total luciferase, z-score: 2.32
- total luciferase, % of control: 128
- activity call: inactive

USP26 #2
- total luciferase, z-score: 0.278
- total luciferase, % of control: 87.4
- activity call: inactive

USP26 #3
- total luciferase, z-score: 0.604
- total luciferase, % of control: 93.9
- activity call: inactive

GPATCH3 #1
- total luciferase, z-score: -0.349
- total luciferase, % of control: 74.9
- activity call: inactive

GPATCH3 #2
- total luciferase, z-score: -0.418
- total luciferase, % of control: 73.6
- activity call: inactive

GPATCH3 #3
- total luciferase, z-score: 1.81
- total luciferase, % of control: 118
- activity call: inactive

LRP8 #1
- total luciferase, z-score: -1.04
- total luciferase, % of control: 61.1
- activity call: inactive

LRP8 #2
- total luciferase, z-score: -0.909
- total luciferase, % of control: 63.8
- activity call: inactive

LRP8 #3
- total luciferase, z-score: 1.82
- total luciferase, % of control: 118
- activity call: inactive

NXT2 #1
- total luciferase, z-score: 0.495
- total luciferase, % of control: 91.7
- activity call: inactive

NXT2 #2
- total luciferase, z-score: -1.22
- total luciferase, % of control: 57.6
- activity call: inactive

NXT2 #3
- total luciferase, z-score: -0.648
- total luciferase, % of control: 69
- activity call: inactive

MAF1 #1
- total luciferase, z-score: -0.598
- total luciferase, % of control: 70
- activity call: inactive

MAF1 #2
- total luciferase, z-score: -1.86
- total luciferase, % of control: 44.9
- activity call: inactive

MAF1 #3
- total luciferase, z-score: -0.456
- total luciferase, % of control: 72.8
- activity call: inactive

KCNJ13 #1
- total luciferase, z-score: 0.951
- total luciferase, % of control: 101
- activity call: inactive

KCNJ13 #2
- total luciferase, z-score: -0.481
- total luciferase, % of control: 72.3
- activity call: inactive

KCNJ13 #3
- total luciferase, z-score: -0.201
- total luciferase, % of control: 77.9
- activity call: inactive

UBR5 #1
- total luciferase, z-score: 1.48
- total luciferase, % of control: 111
- activity call: inactive

UBR5 #2
- total luciferase, z-score: 0.0787
- total luciferase, % of control: 83.5
- activity call: inactive

UBR5 #3
- total luciferase, z-score: -0.221
- total luciferase, % of control: 77.5
- activity call: inactive

ILF2 #1
- total luciferase, z-score: 1.81
- total luciferase, % of control: 118
- activity call: inactive

ILF2 #2
- total luciferase, z-score: 2.36
- total luciferase, % of control: 129
- activity call: inactive

ILF2 #3
- total luciferase, z-score: -1.39
- total luciferase, % of control: 54.3
- activity call: inactive

DDX50 #1
- total luciferase, z-score: -0.976
- total luciferase, % of control: 62.5
- activity call: inactive

DDX50 #2
- total luciferase, z-score: -0.456
- total luciferase, % of control: 72.8
- activity call: inactive

DDX50 #3
- total luciferase, z-score: -0.481
- total luciferase, % of control: 72.3
- activity call: inactive

IER2 #1
- total luciferase, z-score: -1.88
- total luciferase, % of control: 44.5
- activity call: inactive

IER2 #2
- total luciferase, z-score: -0.000997
- total luciferase, % of control: 81.9
- activity call: inactive

IER2 #3
- total luciferase, z-score: -1.59
- total luciferase, % of control: 50.3
- activity call: inactive
